Results from publication PMC5253665.
Results are given in words; binding and its absence hold for the method and conditions named. In cells and extracts the contact can be indirect. Some results given as binding are weak or reduced against the parent protein; the word gives no strength.

Chains of the proteins cited; added tags and fusions are not shown. Residues count along the entry.
UniProt P29460, residues 23-328: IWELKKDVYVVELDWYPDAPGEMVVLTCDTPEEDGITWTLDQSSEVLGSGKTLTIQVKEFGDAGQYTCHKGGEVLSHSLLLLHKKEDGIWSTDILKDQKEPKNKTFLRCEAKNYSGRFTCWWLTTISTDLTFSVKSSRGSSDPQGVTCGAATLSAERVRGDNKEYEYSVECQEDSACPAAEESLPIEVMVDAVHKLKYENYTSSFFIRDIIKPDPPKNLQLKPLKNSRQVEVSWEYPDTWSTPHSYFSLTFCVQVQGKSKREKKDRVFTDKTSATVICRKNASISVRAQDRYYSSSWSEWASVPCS
UniProt P29459, residues 23-219: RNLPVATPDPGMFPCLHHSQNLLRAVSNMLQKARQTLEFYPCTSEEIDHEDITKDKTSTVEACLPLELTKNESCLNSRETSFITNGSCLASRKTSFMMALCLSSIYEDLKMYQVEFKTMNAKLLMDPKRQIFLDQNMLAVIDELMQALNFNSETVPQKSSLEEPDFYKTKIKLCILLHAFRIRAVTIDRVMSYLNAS

Tests used:
[1] = target: T1, EBV-induced gene 3 (EBI3) subunit of IL-35 (human (endogenous in PDAC tumour tissue and primary PDAC cell lines)) (UniProt Q14213); test: co-IP; endogenous proteins in lysates of PDAC tumour tissue (three patients) and of PDAC primary cell lines; immunoprecipitation with antibodies to P35, EBI3, P28 or P40, western blot; the supernatant left after immunoprecipitation was blotted too
T1 sequence: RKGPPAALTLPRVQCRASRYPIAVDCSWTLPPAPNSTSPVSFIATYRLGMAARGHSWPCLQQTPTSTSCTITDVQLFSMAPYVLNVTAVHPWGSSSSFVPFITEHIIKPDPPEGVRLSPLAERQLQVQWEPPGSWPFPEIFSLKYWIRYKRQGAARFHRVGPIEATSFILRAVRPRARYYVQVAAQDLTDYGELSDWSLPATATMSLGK

[2] = target: P40 (subunit that forms IL-12 with P35) (human (endogenous in PDAC tumour tissue and primary PDAC cell lines)) (UniProt P29460); test: as above

binding [1]: binds
binding [2]: binds
Substance: P35 subunit of IL-35 (from UniProt P29459 23-219)
